Reference: paper PMC11631586
These are yes or no findings as the source states them, for the method shown. Binding seen in cells or lysates may run through a third protein. Some binding calls cover weakened binding; strength is not graded here.

Molecular target: T1, β-catenin (mouse (endogenous in heart ventricular tissue)), Q02248
T1 chain: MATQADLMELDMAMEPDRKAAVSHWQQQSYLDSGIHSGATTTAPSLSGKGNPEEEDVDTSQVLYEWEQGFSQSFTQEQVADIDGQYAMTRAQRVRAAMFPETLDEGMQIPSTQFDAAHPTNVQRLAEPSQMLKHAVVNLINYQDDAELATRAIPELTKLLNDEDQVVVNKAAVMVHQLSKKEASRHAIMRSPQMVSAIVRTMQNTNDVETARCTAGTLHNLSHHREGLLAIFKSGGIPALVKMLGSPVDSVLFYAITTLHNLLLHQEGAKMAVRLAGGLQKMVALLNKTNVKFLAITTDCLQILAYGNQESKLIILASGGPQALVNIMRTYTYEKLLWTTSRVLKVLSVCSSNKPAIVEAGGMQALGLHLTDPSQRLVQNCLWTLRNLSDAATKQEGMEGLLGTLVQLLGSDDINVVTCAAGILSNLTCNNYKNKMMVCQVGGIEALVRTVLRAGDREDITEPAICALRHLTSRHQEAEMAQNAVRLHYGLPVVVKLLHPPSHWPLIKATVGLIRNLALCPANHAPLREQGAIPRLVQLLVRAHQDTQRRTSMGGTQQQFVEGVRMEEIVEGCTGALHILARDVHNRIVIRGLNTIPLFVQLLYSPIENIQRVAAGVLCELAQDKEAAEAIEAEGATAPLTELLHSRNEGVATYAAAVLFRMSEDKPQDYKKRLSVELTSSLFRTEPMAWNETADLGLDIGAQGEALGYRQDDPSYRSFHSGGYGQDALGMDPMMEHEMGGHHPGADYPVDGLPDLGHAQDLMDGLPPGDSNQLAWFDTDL
Assay: co-IP; extracts of mouse ventricular tissue (Sham, Sham + EMPA, TAC + VE, TAC + EMPA) cleared with Protein A/G beads; incubated with anti-β-catenin or anti-TCF7L2 antibody at 4 °C overnight, Protein A/G beads 4 h, washed three times with lysis buffer; Western blot; input 10% of lysate
Settings: remark: other sources report otherwise

B1: TCF7L2, Q924A0 1-459 (protein)
chain: MPQLNGGGGDDLGANDELISFKDEGEQEEKNSENSSAERDLADVKSSLVNESETNQDSSSDSEAERRPPPRSESFRDKSRESLEEAAKRQDGGLFKGPPYPGYPFIMIPDLTSPYLPNGSLSPTARTYLQMKWPLLDVQAGSLQSRQTLKDARSPSPAHIVSNKVPVVQHPHHVHPLTPLITYSNEHFTPGNPPPHLPADVDPKTGIPRPPHPPDISPYYPLSPGTVGQIPHPLGWLVPQQGQPVYPITTGGFRHPYPTALTVNASMSRFPPHMVPPHHTLHTTGIPHPAIVTPTVKQESSQSDVGSLHSSKHQDSKKEEEKKKPHIKKPLNAFMLYMKEMRAKVVAECTLKESAAINQILGRRWHALSREEQAKYYELARKERQLHMQLYPGWSARDNYGKKKKRKRDKQPGETNEHSECFLNPCLSLPPITDLSAPKKCRARFGLDQQNNWCGPCSL
- binding: binds
